## Results from one PubChem assay

The results are deposited in PubChem (AID1159506; NCATS, 2015).

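Luminescence from an EWS-FLI1 target-promoter (NR0B1) reporter, set against a CMV-promoter reporter, two days after silencing single genes in TC32 Ewing sarcoma cells. Each siRNA was applied at 20 nM. A z-score of the log NR0B1-over-CMV signal, less the median of siRNAs with the same seed; more negative means a stronger specific loss of the NR0B1 reporter.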

The strongest results of the screen are mostly left out here. Sequences are the guide (antisense) strand, without overhang.

{"sirna": "AUCUCGUUGAACAACUUCC", "target gene": "MLPH", "seed-corrected z-score": "0.2087"}
{"sirna": "UAUACGUCUUGGAAAAUAC", "target gene": "FBXL12", "seed-corrected z-score": "-0.277"}
{"sirna": "UAAGUGACAAACUUGCUAU", "target gene": "LINC00303", "seed-corrected z-score": "-0.386"}
{"sirna": "UUGCUAGCAAUCAAAGUCC", "target gene": "CTRC", "seed-corrected z-score": "-0.2973"}
{"sirna": "UGCCGUACACGCAUGAUCU", "target gene": "SPATA31C1", "seed-corrected z-score": "-0.6359"}
{"sirna": "AUCGAAACAAUGUUAAUAC", "target gene": "ABCB4", "seed-corrected z-score": "0.2008"}
{"sirna": "UCUCUCUAGGGUGUUGUUC", "target gene": "PCP4", "seed-corrected z-score": "0.7357"}
{"sirna": "UUGGAAUCCGCUUUCGACG", "target gene": "DIAPH2", "seed-corrected z-score": "0.2325"}
{"sirna": "UUGCUCAUGACAAUUAAGG", "target gene": "C11orf74", "seed-corrected z-score": "0.2246"}
{"sirna": "UGAAGUAUAAGAGUGGUAC", "target gene": "KIAA1429", "seed-corrected z-score": "0.07176"}
{"sirna": "UAUAAGAGACGCGAUGUCC", "target gene": "MRFAP1L1", "seed-corrected z-score": "0.8585"}
{"sirna": "UGUCAACUAAGGUAAGAAC", "target gene": "APOL2", "seed-corrected z-score": "1.296"}
{"sirna": "AUUGAUAGCAGUCACUUGC", "target gene": "GRIA2", "seed-corrected z-score": "-1.121"}
{"sirna": "UCUUCAUCCAUAAAUCGCC", "target gene": "KMT2B", "seed-corrected z-score": "0.2527"}
{"sirna": "AUAUUAAUAAGGAAGACUC", "target gene": "WDR82", "seed-corrected z-score": "-1.44"}
{"sirna": "UGACAUUGAAGUGAUAGCC", "target gene": "NR1I2", "seed-corrected z-score": "0.09871"}
{"sirna": "UCAUGUACACCAAAAACAG", "target gene": "OR4D9", "seed-corrected z-score": "0.1179"}
{"sirna": "UUGAUAACUUCGGGCAUGG", "target gene": "PNLIPRP3", "seed-corrected z-score": "-0.05487"}
{"sirna": "UAAUCGACUCAUCUGUUAC", "target gene": "HYLS1", "seed-corrected z-score": "0.437"}
{"sirna": "AAAAGAAUUGUGCAGUUGC", "target gene": "OR51G2", "seed-corrected z-score": "0.5099"}
{"sirna": "UUGUUUACUAGUAUUCCUC", "target gene": "EIF3H", "seed-corrected z-score": "1.187"}
{"sirna": "UCAGGGAUACUGGAUAGGG", "target gene": "SERINC2", "seed-corrected z-score": "0.2317"}
{"sirna": "UAGGUCGAAAAUAAUCGGG", "target gene": "PHKB", "seed-corrected z-score": "-0.3598"}
{"sirna": "UUCUAGAGUACUUUCCAGG", "target gene": "PGS1", "seed-corrected z-score": "-0.9873"}
{"sirna": "AAUAGAUAAAUUAUGGAGC", "target gene": "OR4D10", "seed-corrected z-score": "0.04"}
{"sirna": "UAAUUCAUCCUCGUUCAGC", "target gene": "NLRP7", "seed-corrected z-score": "0.7155"}
{"sirna": "UUAAGUGUAAGGUGAAAAG", "target gene": "RPEL1", "seed-corrected z-score": "1.168"}
{"sirna": "AUAGUGAAUCGGUUACACC", "target gene": "GCN1", "seed-corrected z-score": "0.6869"}
{"sirna": "UAAAGAUCUGGGAAUAGUG", "target gene": "SMAD5", "seed-corrected z-score": "-1.23"}
{"sirna": "UUACUUCUUAAGUCAACUC", "target gene": "ANKRD34C", "seed-corrected z-score": "-1.15"}
{"sirna": "UCUGUUACCAACUUAUACG", "target gene": "PCDHGB5", "seed-corrected z-score": "-0.9007"}
{"sirna": "UUGUAGUCCACAUUGAGCC", "target gene": "HS3ST1", "seed-corrected z-score": "-0.3554"}
{"sirna": "UUCACCAUGAAGUUAAUUC", "target gene": "PPM1K", "seed-corrected z-score": "0.008226"}

Once more, the final 3:

Result for UCUGUUACCAACUUAUACG against PCDHGB5 was seed-corrected z-score -0.9007.
Result for UUGUAGUCCACAUUGAGCC against HS3ST1 was seed-corrected z-score -0.3554.
Result for UUCACCAUGAAGUUAAUUC against PPM1K was seed-corrected z-score 0.008226.